Experimental data as given in paper PMC7042714.
No constants are given. Whether binding was seen depends on the method and setting. For some of these results: Binding seen in cells or lysates may run through a third protein. Some binding calls cover weakened binding; strength is not graded here.

Amino acid sequences for entries named in this document (tags omitted).
UniProt Q9BVL2: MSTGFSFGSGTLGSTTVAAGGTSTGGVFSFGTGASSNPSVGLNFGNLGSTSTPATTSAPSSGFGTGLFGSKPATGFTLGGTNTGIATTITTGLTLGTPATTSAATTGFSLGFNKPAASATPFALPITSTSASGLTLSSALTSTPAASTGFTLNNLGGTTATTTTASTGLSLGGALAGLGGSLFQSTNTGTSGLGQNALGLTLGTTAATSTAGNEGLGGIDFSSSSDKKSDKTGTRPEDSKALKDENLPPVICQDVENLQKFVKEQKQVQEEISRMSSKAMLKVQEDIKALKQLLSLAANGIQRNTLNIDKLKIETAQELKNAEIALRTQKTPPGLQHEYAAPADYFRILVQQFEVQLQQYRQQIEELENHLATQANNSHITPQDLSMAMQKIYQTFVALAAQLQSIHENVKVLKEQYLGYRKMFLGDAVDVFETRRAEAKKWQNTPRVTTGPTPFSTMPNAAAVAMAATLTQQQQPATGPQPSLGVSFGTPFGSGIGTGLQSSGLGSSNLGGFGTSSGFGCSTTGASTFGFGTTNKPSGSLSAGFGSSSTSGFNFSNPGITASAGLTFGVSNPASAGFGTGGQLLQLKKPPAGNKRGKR
UniProt Q92621: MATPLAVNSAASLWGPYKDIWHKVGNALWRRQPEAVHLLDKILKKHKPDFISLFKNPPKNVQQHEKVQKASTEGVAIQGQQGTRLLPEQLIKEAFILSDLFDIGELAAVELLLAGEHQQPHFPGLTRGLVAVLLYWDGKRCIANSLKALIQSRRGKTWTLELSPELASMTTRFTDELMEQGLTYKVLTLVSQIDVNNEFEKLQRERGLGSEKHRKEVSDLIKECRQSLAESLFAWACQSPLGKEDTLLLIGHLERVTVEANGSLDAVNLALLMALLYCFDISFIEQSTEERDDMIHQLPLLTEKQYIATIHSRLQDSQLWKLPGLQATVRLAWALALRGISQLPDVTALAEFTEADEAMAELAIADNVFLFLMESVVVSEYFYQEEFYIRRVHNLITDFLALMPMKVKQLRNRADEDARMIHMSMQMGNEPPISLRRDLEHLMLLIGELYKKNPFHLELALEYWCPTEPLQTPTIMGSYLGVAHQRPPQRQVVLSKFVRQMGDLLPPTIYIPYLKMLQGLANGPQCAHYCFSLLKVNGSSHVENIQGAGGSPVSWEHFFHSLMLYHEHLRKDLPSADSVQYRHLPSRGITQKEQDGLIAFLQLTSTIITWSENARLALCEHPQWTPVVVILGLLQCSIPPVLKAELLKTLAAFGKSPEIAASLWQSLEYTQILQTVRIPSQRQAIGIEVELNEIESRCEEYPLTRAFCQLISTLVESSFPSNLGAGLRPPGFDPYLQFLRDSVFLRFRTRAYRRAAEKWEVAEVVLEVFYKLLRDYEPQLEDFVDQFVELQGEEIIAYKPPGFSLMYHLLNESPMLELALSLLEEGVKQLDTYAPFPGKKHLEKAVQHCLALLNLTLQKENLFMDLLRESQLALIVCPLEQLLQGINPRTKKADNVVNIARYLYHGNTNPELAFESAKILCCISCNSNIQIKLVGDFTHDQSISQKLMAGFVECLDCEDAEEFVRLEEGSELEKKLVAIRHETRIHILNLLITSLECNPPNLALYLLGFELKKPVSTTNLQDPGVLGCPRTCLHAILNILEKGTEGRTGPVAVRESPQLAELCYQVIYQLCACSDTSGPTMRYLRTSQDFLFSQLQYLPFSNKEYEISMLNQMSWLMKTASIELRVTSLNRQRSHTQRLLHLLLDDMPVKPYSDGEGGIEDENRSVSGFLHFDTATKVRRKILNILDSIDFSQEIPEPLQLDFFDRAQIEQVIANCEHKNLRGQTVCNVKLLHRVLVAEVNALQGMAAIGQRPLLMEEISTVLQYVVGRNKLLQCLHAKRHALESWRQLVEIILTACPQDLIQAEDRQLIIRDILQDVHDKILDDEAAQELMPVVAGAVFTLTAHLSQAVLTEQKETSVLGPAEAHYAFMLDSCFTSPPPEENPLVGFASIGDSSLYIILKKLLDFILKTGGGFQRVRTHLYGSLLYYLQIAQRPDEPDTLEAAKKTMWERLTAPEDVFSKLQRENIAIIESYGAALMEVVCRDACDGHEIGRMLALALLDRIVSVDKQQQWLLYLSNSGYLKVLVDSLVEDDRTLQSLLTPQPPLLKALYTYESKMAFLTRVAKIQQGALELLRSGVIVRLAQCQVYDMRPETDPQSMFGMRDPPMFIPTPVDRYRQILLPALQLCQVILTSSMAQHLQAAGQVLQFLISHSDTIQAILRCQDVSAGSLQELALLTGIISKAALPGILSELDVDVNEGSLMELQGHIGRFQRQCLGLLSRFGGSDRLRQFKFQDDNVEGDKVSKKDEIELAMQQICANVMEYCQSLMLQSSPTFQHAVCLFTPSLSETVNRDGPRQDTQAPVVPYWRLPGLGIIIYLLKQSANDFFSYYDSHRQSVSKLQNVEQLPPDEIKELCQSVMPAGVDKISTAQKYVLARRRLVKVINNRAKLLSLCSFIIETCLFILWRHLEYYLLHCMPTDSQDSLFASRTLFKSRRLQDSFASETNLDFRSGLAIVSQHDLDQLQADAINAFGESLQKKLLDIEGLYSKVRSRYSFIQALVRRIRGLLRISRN
UniProt P37198: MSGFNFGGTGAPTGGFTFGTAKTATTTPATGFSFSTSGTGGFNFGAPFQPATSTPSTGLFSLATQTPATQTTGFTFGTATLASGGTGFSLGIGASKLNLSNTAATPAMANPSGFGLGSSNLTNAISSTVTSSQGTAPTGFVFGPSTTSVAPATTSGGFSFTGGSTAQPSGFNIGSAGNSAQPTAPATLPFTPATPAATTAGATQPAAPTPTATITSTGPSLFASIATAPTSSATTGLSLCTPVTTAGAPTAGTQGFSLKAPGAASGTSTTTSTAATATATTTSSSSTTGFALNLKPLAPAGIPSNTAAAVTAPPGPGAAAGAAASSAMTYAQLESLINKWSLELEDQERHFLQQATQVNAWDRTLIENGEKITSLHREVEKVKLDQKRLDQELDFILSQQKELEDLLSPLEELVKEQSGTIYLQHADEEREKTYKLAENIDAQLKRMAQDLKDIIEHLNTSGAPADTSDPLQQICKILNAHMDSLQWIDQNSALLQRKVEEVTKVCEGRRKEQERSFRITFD

Legend:
[1] = molecular target: T1, NUP93 (human (endogenous in HeLa)) (UniProt Q8N1F7); assay: SEC; SEC-SWATH-MS: native extract (0.5% NP-40, freeze-thaw) of HeLa CCL2 cells synchronized in interphase (double thymidine block) or mitosis (thymidine, nocodazole, shake-off); SRT-C-SEC 500 column, 50 mM HEPES pH 7.5, 150 mM NaCl, 0-4°C; 65 fractions profiled by SWATH-MS, triplicates; association inferred from co-elution
T1 sequence: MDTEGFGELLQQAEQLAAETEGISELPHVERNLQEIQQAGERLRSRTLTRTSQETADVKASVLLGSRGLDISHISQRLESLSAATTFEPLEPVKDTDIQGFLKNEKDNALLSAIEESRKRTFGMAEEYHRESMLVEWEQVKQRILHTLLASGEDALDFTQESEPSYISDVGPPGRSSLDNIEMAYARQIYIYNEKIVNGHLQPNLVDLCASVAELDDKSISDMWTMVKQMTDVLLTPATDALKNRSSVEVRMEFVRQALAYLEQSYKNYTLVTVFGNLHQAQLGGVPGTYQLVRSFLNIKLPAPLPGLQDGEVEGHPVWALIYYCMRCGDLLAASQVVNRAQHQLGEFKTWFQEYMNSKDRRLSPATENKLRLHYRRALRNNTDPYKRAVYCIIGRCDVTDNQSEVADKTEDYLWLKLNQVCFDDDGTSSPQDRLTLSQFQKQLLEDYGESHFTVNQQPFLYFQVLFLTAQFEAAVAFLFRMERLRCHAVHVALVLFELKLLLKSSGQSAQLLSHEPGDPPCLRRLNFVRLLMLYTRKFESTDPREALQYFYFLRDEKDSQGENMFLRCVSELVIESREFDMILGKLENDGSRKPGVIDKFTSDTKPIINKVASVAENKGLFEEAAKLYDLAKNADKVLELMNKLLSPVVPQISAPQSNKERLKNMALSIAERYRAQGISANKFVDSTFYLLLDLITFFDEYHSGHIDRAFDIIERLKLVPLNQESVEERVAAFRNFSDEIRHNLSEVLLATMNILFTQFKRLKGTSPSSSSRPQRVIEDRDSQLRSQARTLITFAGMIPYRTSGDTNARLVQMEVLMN

HA-Strep-tagged NUP58 = HA-Strep-tagged NUP58 (UniProt Q9BVL2); assay: pull-down; HA-Strep-NUP58 captured on StrepTactin Sepharose from lysate of HeLa Flp-In T-REx cells synchronized in interphase or mitosis; 25 mM Tris-HCl pH 7.6, 125 mM NaCl, 2 mM MgCl2, 1 mM DTT, 0.5% NP-40, 4°C; biotin elution; immunoblotting; HA-Strep-GFP as control bait

binding [1] | binding (HA-Strep-tagged NUP58) | Substance
binds | – | NUP205 (from UniProt Q92621 1-2012)
binds | binds | NUP62 (from UniProt P37198 1-522)
binds | – | NUP58 (endogenous) (from UniProt Q9BVL2 1-599)
